Earlier results, collected in patent US9555001B2, “Pharmaceutical composition and uses thereof” (Boehringer Ingelheim International GmbH, priority 2012, dated 2017).

Conditions: metformin on its own, in the diabetic

CN(C)C(=N)N=C(N)N [metformin]
average improvement in the HbA1c value: 1.0-1.5%
